The experiment concerns the target T1, ZO-2 (Zonula occludens-2) (dog (endogenous in MDCK)) (UniProt Q95168).
T1 sequence: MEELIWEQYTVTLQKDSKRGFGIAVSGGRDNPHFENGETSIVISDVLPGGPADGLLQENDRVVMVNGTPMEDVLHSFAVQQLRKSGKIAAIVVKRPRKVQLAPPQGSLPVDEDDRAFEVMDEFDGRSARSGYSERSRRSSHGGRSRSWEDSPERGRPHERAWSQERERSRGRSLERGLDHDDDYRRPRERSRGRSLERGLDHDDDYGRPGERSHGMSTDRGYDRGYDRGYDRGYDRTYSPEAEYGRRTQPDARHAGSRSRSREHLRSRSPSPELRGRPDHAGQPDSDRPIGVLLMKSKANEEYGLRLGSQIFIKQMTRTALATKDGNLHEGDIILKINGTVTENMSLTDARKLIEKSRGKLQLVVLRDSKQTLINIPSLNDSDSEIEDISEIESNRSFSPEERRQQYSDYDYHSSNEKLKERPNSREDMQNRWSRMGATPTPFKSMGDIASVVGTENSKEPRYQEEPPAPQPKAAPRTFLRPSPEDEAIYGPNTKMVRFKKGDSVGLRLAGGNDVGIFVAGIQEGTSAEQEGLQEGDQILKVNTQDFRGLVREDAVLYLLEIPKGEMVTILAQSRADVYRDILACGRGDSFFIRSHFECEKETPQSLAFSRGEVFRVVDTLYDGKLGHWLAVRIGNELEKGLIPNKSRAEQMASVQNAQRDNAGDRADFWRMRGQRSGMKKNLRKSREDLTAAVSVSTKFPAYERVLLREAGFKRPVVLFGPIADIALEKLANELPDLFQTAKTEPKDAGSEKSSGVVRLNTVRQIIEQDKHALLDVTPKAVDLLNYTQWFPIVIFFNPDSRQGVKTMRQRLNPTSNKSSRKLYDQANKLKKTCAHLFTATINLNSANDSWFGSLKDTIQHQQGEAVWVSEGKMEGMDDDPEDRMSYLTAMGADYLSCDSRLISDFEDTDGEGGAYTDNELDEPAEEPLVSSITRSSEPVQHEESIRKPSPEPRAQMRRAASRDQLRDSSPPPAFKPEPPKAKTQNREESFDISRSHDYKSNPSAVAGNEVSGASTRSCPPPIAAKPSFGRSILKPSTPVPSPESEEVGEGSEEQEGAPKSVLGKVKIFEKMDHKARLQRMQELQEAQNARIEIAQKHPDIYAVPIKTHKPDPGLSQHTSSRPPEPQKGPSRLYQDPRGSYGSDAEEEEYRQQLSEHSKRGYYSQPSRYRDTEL
Description: co-IP; ZO-2 immunoprecipitated with anti-ZO-2 (1 ul per 300 ug protein) from lysate of parental MDCK cells; buffer 50 mM Tris-HCl pH 7.5, 150 mM NaCl, 1% NP-40, protease inhibitors; Western blot of the precipitate; subconfluent or proliferating cells (KIF14, NuMA, p-Aurora, TPX2) or confluent cells (IFT57); pre-immune serum as control.

Results are given in words; binding and its absence hold for the method and conditions named. In cells and extracts the contact can be indirect. Binding calls can cover weak binding; strength is not graded here.

In the case of “NuMA (Nuclear Mitotic Apparatus) (dog (endogenous in MDCK))”, the binding entry is on record as “binds”.
The same measure for TPX2 (dog (endogenous in MDCK)): “no binding”; for “kinesin KIF14 (dog (endogenous in MDCK))”: “binds”.

Source of the values: PMC12484294.
